Patent publication US20090325944A1, “Methods and Compositions for Modulating Glycosylation” (priority 2006, published 2009)
Some results were stated once for a whole list of compounds, not compound by compound.

Test system: O-GlcNAcylation in CHO cells
Assay: O-GlcNAcylation in cell culture
Format: cell-based

O=C(O)C1CC(=O)N(CCC23CC4CC(CC(C4)C2)C3)/C(=N/c2ccc(Cl)cc2)S1 (centres unmarked) [compound 4]
effect on O-GlcNAcylation in CHO cells: decrease O-GlcNAcylation in CHO cells

O=C(Oc1ccccc1)n1c(=O)oc2ccc(Cl)cc21 [compound 5]
effect on O-GlcNAcylation in CHO cells: decrease O-GlcNAcylation in CHO cells

N#Cc1ccc(CSc2nc(-c3cccs3)c3c(c2C(=O)O)CCCC3)cc1 [compound 6]
effect on O-GlcNAcylation in CHO cells: decrease O-GlcNAcylation in CHO cells

COc1cc2c(cc1OC)C(C)N(S(=O)(=O)c1ccc3[nH]c(=O)ccc3c1)CC2 (centres unmarked) [compound 7]
effect on O-GlcNAcylation in CHO cells: decrease O-GlcNAcylation in CHO cells

CCOc1ccccc1N(C)S(=O)(=O)c1ccc2[nH]c(=O)ccc2c1 [compound 8]
effect on O-GlcNAcylation in CHO cells: decrease O-GlcNAcylation in CHO cells

O=C(NCc1ccccc1)C(NS(=O)(=O)c1ccc2[nH]c(=O)ccc2c1)c1ccccc1 (centres unmarked) [compound 9]
effect on O-GlcNAcylation in CHO cells: decrease O-GlcNAcylation in CHO cells

CCCc1c(O)nc(SCC(=O)O)[nH]c1=O [compound 10]
effect on O-GlcNAcylation in CHO cells: decrease O-GlcNAcylation in CHO cells

CC(C)(C)c1ccc(S(=O)(=O)Nc2ccc3[nH]c(=O)[nH]c3c2)cc1 [compound 11]
effect on O-GlcNAcylation in CHO cells: decrease O-GlcNAcylation in CHO cells

Cc1ccc(NC(=O)c2sc(=S)n3c2[nH]c(=O)c2ccccc23)c(C)c1 [compound 12]
effect on O-GlcNAcylation in CHO cells: decrease O-GlcNAcylation in CHO cells

O=C(Cn1c(=O)sc2ccccc21)Nc1sc2c(c1C(=O)O)CCCC2 [compound 13]
effect on O-GlcNAcylation in CHO cells: decrease O-GlcNAcylation in CHO cells

N#Cc1c(-c2cccs2)cc(-c2ccc(C(=O)O)cc2)nc1SCc1cccs1 [compound 14]
effect on O-GlcNAcylation in CHO cells: decrease O-GlcNAcylation in CHO cells
